Results of single-concentration screens

A: 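Whole-parasite assay of Trypanosoma brucei over 72 hours; the read-out is not stated. Compounds at 30 µM. Higher reads as stronger inhibition (inferred: compounds with an IC50 in retests scored well above the rest). Values scatter widely below zero; nearly all retest evidence comes from the higher of the two concentrations used. Size under these conditions: about 64,000 compounds, about 940 of them at 50% or above in at least one test.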
B: 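Cell assay of Leishmania donovani living inside macrophages; the read-out is not stated. Concentration: 30 µM. The record gives no direction; compounds that gave an IC50 in retests scored well above the rest, so higher reads as stronger inhibition. About 69,000 compounds were tested under these conditions; 1.5% (about 1,000) showed 50% or more at least once.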

Values are the deposited “Percent Effect”, in %.
How 0% and 100% were set is not recorded. Most values in the screen are low, and negative values occur.
This is an unselected part of the compounds tested.
Two or more numbers in one place are separate tests of the same structure; such repeats can differ widely.
A dash means the value is not listed here; it may have been measured.

| SMILES | A | B |
|---|---|---|
| `Cc1nc(CN2C(=O)CCC23CCN(Cc2ccccn2)CC3)cs1.O=C(O)C(F)(F)F.O=C(O)C(F)(F)F` | -6.926% | 13.84% |
| `OCC1CCCN1c1cc(NCCc2ccsc2)ncn1` (stereo not shown) | 6.798% | -26.43% |
| `CCN(CC)C(=O)[C@@H]1C[C@H](n2cc(-c3ccccn3)nn2)CN1` | -2.162% | 6.654% |
| `Cc1nc(N2CCOCC2)nc2c1CCN(C(=O)C1CCCCC1)CC2` | -13.69% | 15.71% |
| `CC(C)Nc1nc(N2CCOCC2)nc2c1CN(Cc1ccoc1)CC2` | 8.067% | 15.45% |
| `COCc1nc(NCC2CCS(=O)(=O)C2)c2cnn(C)c2n1` (stereo not shown) | -26.1% | 13.57% |
| `CC(CN1CCC(CCO)CC1)n1cnc2ccccc21` (stereo not shown) | 0.9274% | -4.717% |
| `CC1=C(C(=O)NCc2cccnc2-n2cnc3ccccc32)OCCO1` | -3.394% | 10.35% |
| `Cc1cc(OCC(O)c2nc3c([nH]2)CC(C)(C)CNC3=O)ccc1Cl` (stereo not shown) | -6.629% | 10.83% |
| `NC(=O)C1CCN(C(=O)Cn2ccc3cc(Br)ccc32)CC1` | -24.32% | 6.854% |
| `O=C(CCC(=O)N1CCc2[nH]c3ccccc3c2C1)NCc1ccco1` | -8.528% | 1.167% |
| `CSc1sc2c(O)cc(=O)[nH]c2c1C(N)=O` | -31.82% | -34.7% |
| `O=C(NC1CCN(c2cccc(C(F)(F)F)n2)CC1)C1CC1` | -7.561% | -7.652% |
| `[H][C@]12CC[C@]([H])(CN(C(=O)C3CCC3)C1)N(S(=O)(=O)c1ccccc1)C2` | -0.3314% | -6.923% |
| `O=C(NCCNc1ncccn1)N1CCN(C2CCCC2)CC1` | -23.11% | 22.19% |
| `CCn1nc(C)c2ncnc(NCCn3cccn3)c21` | - | -8.829% |
| `NC(=O)C1CCCCN1C(=O)c1ccc(Br)s1` (stereo not shown) | -23.7% | -0.7905% |
| `CCS(=O)(=O)NCCNC(=O)N(Cc1ccc(C)o1)C(C)C` | -42.58% | 3.41% |
| `O=C(O)c1cnc(N2CCCC2)nc1COc1ccccc1` | -1.478% | 18.9% |
| `COCCN1CCCC12CCCN(c1ncccn1)C2` (stereo not shown) | -62.28% | -11.33% and 8.384% |
| `O=C(O)C(F)(F)F.[H][C@@]12CCN(CCOC)C(=O)[C@@]1([H])CN(Cc1ccc(C)s1)C2` | -7.411% | -9.099% |
| `COc1c(C)cnc(CN(C)C(=O)c2ccccn2)c1C` | -9.452% | -16.64% |
| `O=C(O)C(F)(F)F.[H][C@@]12CCN(Cc3cn(C)c4ccccc34)[C@]1([H])CC[C@@H](C(=O)NC1CC1)O2` | -2.514% | 21.08% |
| `COc1nc(C)c(C(=O)N2CCN(c3ncccc3C)CC2)s1` | -1.67% | 4.053% |
| `Cc1cccc(N2CCN(C(=O)CNCCn3cc(C)cn3)CC2)c1` | -0.3837% | 1.605% |
| `CC(C)c1nc(C(=O)N2CCc3ccccc3C2C(=O)O)cs1` (stereo not shown) | -5.588% | -10.81% |
| `O=C1NCC2(CCCN(C(=O)Nc3cccc(-c4cscn4)c3)CC2)O1` (stereo not shown) | -114.6% | -2.297% |
| `CNC(=O)c1cccnc1NCCOc1ccccc1` | 1.034% | 22.23% |
| `Cc1cc(=O)[nH]c(=O)n1Cc1ncc(-c2ccccc2C(=O)O)s1` | -33.36% | -25.56% |
| `COc1cccc(COCC(=O)N2CCCC(c3nncn3C)C2)c1` (stereo not shown) | 15.48% | 17.23% |
| `CNS(=O)(=O)Cc1ccc(CNC(=O)c2cccc(C)n2)cc1` | 17.29% | 36.89% |
| `COc1ccccc1NCC(=O)Nc1cnn(Cc2ccccn2)c1` | -6.234% | 21.05% |
| `COc1ccccc1CN1CC[C@H](c2nnc(-c3cncn3C)o2)C1` | 15.9% | 29.08% |
| `CSc1sc(NC(=O)Cc2c(C)nc(C)[nH]c2=O)nc1C` | 13.65% | 4.885% |
| `COc1ccc(F)c(-c2cc(C(=O)NC3CC3)ccn2)c1` | -56.51% | 32.92% |
| `CCC[C@H]1CN(c2cncc(C(=O)N(C)C)n2)C[C@@H]1N(C)C` | -113.3% | 7.235% |
| `CC(NC(=O)NC1CC1)c1nc(-c2ccccc2)cs1` (stereo not shown) | 11.91% | -1.591% |
| `CC(OCC1CC1)C(=O)N1CCCN(Cc2cscn2)CC1` (stereo not shown) | - | 12.96% |
| `Cc1ccn(CCC(=O)NCCc2ccco2)n1` | -10.94% | -2.093% |
| `Cc1ccc(S(=O)(=O)N2CCN(C)C3(CCC(=O)N(C)CC3)C2)s1` (stereo not shown) | -44.01% | 9.294% |
| `O=S(=O)(N1CCCC1)N1CCc2sccc2C1` | -13.16% | -12.91% |
| `CCc1nc2ccccc2c(=O)n1CC1(O)CCN(S(C)(=O)=O)CC1.Cl` | 15.29% | 12.03% |
| `Cc1cnn(C2CN(CC(O)COCc3ccc4c(c3)OCO4)C2)c1` (stereo not shown) | -19.34% | 1.665% |
| `Cn1cc(S(=O)(=O)N(CC(F)(F)F)C2CC2)cc1C(N)=O` | -7.351% | 3.059% |
| `Cc1cc(C(F)(F)F)nc(CNc2cc(C)nc3cc(C)nn23)n1` | -13.07% | -4.164% |
| `Nc1cc(N2CCCC2c2cnccn2)ncn1` (stereo not shown) | 12.46% | 33.25% |
| `O=C(O)C(F)(F)F.O=C(O)C(F)(F)F.c1csc(CN2CCCC3(COCCN(c4cnccn4)C3)C2)c1` (stereo not shown) | -135.1% | 8.774% |
| `O=C1CC(N(C(=O)c2ccc3[nH]c4c(c3c2)CCCC4)C2CC2)C(=O)N1` (stereo not shown) | 5.221% | -12.64% |
| `COCCNC(=O)C1(CCCc2cccnc2)CCCN1C` (stereo not shown) | -14.14% | 24.4% |
| `Fc1ccc(C(NCc2nnc(-c3ccco3)o2)C2CCC2)cc1` (stereo not shown) | -39.25% | 16.7% |

Once more, the final 6:

* Cc1cc(C(F)(F)F)nc(CNc2cc(C)nc3cc(C)nn23)n1 : A: -13.07%; B: -4.164%
* Nc1cc(N2CCCC2c2cnccn2)ncn1 (stereo not shown) : A: 12.46%; B: 33.25%
* O=C(O)C(F)(F)F.O=C(O)C(F)(F)F.c1csc(CN2CCCC3(COCCN(c4cnccn4)C3)C2)c1 (stereo not shown) : A: -135.1%; B: 8.774%
* O=C1CC(N(C(=O)c2ccc3[nH]c4c(c3c2)CCCC4)C2CC2)C(=O)N1 (stereo not shown) : A: 5.221%; B: -12.64%
* COCCNC(=O)C1(CCCc2cccnc2)CCCN1C (stereo not shown) : A: -14.14%; B: 24.4%
* Fc1ccc(C(NCc2nnc(-c3ccco3)o2)C2CCC2)cc1 (stereo not shown) : A: -39.25%; B: 16.7%

Source: ChEMBL document CHEMBL3988442, “University of Dundee, Small-Polar-MMV Screening Library” (2021).